PubChem BioAssay AID602196 – INSERM | 2012
In all, the deposit lists about 23,000 reagents; below is an unselected part. 455 of them (2%) were called active. 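Active includes both protection and sensitisation; some change values fall well beyond the stated -50 to +50 range.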 A number with no mark means an inactive call. Not all columns of the deposit are shown. Not given: the amount of reagent.

- Screen: 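Modifiers of cisplatin sensitivity in A549 cells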
- Cells: human A549 lung cancer cells
- Reagent: siRNA pair against human genes
- Timing: 48 h transfection before cisplatin; time from cisplatin to read-out not stated
- Conditions: cisplatin at a dose killing half of control-siRNA cells; exact dose and duration not given
- Detection: 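Cisplatin cell death as a shift from the 50% death seen with control siRNA; siRNAs toxic or growth-blocking alone scored 0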
- Direction: two-siRNA summed score (-2 to +2): higher = both siRNAs protect from cisplatin killing; -2 means both sensitise; mean protection from cisplatin (shift in death): higher = protection from cisplatin killing
- Call rule: 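Each siRNA scores 0 if harmful alone by LDH or WST-1, otherwise +1 if it reduces and -1 if it increases cisplatin killing; a gene is active when both siRNAs agree (sum +2 or -2)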
- Meaning of the calls: active = both siRNAs shift cisplatin killing the same way; inactive = no consistent shift, or siRNA harmful alone

SSBP1 [SID131509145]
- two-siRNA summed score (-2 to +2): 0
- mean protection from cisplatin (shift in death) (%): 1.9

ABCD2 [SID131500862]
- two-siRNA summed score (-2 to +2): -1
- mean protection from cisplatin (shift in death) (%): -15

ABCD2 [SID131503819]
- two-siRNA summed score (-2 to +2): 0
- mean protection from cisplatin (shift in death) (%): -7.6

CDY1B [SID131512346]
- two-siRNA summed score (-2 to +2): 0
- mean protection from cisplatin (shift in death) (%): 5.4

SNRNP40 [SID131514436]
- two-siRNA summed score (-2 to +2): 0
- mean protection from cisplatin (shift in death) (%): 7.8

GPR137 [SID131504726]
- two-siRNA summed score (-2 to +2): 0
- mean protection from cisplatin (shift in death) (%): -4.6

CTSA [SID131513186]
- two-siRNA summed score (-2 to +2): 0
- mean protection from cisplatin (shift in death) (%): 6.3

LOC400682 [SID131510540]
- two-siRNA summed score (-2 to +2): 0
- mean protection from cisplatin (shift in death) (%): 3.4

THUMPD1 [SID131504678]
- two-siRNA summed score (-2 to +2): 0
- mean protection from cisplatin (shift in death) (%): -4.8

RNF17 [SID131506834]
- two-siRNA summed score (-2 to +2): 0
- mean protection from cisplatin (shift in death) (%): -0.9

RNF17 [SID131517518]
- two-siRNA summed score (-2 to +2): 0
- mean protection from cisplatin (shift in death) (%): 13.7

LCE1E [SID131517444]
- two-siRNA summed score (-2 to +2): 0
- mean protection from cisplatin (shift in death) (%): 13.4

LOC390606 [SID131522368]
- two-siRNA summed score (-2 to +2): 1
- mean protection from cisplatin (shift in death) (%): 18

TCP1 [SID131506446]
- two-siRNA summed score (-2 to +2): 0
- mean protection from cisplatin (shift in death) (%): -1.5

PLBD1 [SID131506750]
- two-siRNA summed score (-2 to +2): 0
- mean protection from cisplatin (shift in death) (%): -1

CRTAM [SID131507717]
- two-siRNA summed score (-2 to +2): 0
- mean protection from cisplatin (shift in death) (%): 0.2

LOC128710 [SID131512924]
- two-siRNA summed score (-2 to +2): 0
- mean protection from cisplatin (shift in death) (%): 6

LOC132391 [SID131520715]
- two-siRNA summed score (-2 to +2): 1
- mean protection from cisplatin (shift in death) (%): 10.9

PDE9A [SID131502747]
- two-siRNA summed score (-2 to +2): -1
- mean protection from cisplatin (shift in death) (%): 5.5

PALLD [SID131515472]
- two-siRNA summed score (-2 to +2): 0
- mean protection from cisplatin (shift in death) (%): 9.2

OR1K1 [SID131517581]
- two-siRNA summed score (-2 to +2): 0
- mean protection from cisplatin (shift in death) (%): 13.9

FAM27E5 [SID131511717]
- two-siRNA summed score (-2 to +2): 0
- mean protection from cisplatin (shift in death) (%): 4.6

PTGDR2 [SID131522404]
- two-siRNA summed score (-2 to +2): 1
- mean protection from cisplatin (shift in death) (%): 18.3

PSMB8 [SID131501600]
- two-siRNA summed score (-2 to +2): -1
- mean protection from cisplatin (shift in death) (%): -8.7

LITAF [SID131506454]
- two-siRNA summed score (-2 to +2): 0
- mean protection from cisplatin (shift in death) (%): -1.5

CST6 [SID131519452]
- two-siRNA summed score (-2 to +2): 1
- mean protection from cisplatin (shift in death) (%): 5.7

UBR7 [SID131514297]
- two-siRNA summed score (-2 to +2): 0
- mean protection from cisplatin (shift in death) (%): 7.6

MEPCE [SID131504747]
- two-siRNA summed score (-2 to +2): 0
- mean protection from cisplatin (shift in death) (%): -4.6

DCAF8L2 [SID131519488]
- two-siRNA summed score (-2 to +2): 1
- mean protection from cisplatin (shift in death) (%): 5.9

KIF1A [SID131508022]
- two-siRNA summed score (-2 to +2): 0
- mean protection from cisplatin (shift in death) (%): 0.5

CCDC196 [SID131516792]
- two-siRNA summed score (-2 to +2): 0
- mean protection from cisplatin (shift in death) (%): 11.6

Entries above whose target name starts with C or c (5):
CDY1B [SID131512346]
- two-siRNA summed score (-2 to +2): 0
- mean protection from cisplatin (shift in death) (%): 5.4

CTSA [SID131513186]
- two-siRNA summed score (-2 to +2): 0
- mean protection from cisplatin (shift in death) (%): 6.3

CRTAM [SID131507717]
- two-siRNA summed score (-2 to +2): 0
- mean protection from cisplatin (shift in death) (%): 0.2

CST6 [SID131519452]
- two-siRNA summed score (-2 to +2): 1
- mean protection from cisplatin (shift in death) (%): 5.7

CCDC196 [SID131516792]
- two-siRNA summed score (-2 to +2): 0
- mean protection from cisplatin (shift in death) (%): 11.6
